# Data from doi:10.1101/2020.05.07.057075.
# By UniProt entry, the sequences of proteins in these tests, tags left out. Where a name states a change or a piece, a line headed by the entry shows the natural chain unless it says otherwise. Chains listed by the source or under a name are the forms on record and can include a tag or linker. Residues count along the entry.
# UniProt P06748: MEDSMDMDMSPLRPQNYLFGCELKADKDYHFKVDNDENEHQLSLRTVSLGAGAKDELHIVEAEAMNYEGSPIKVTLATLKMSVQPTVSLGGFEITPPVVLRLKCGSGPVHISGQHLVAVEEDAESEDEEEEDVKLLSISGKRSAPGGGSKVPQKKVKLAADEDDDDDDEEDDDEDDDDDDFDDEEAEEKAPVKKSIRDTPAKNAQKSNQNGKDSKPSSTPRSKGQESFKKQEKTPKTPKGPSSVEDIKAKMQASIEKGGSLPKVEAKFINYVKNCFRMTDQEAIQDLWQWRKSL
# NPM oligomerization domain NPM(1-130), His-tagged: residues 1-130 of P06748
# UniProt P99999: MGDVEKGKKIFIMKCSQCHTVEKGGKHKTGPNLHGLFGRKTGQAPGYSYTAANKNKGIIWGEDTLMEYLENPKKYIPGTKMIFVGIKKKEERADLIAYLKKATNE
# No constants are given. Whether binding was seen depends on the method and setting. For some of these results: Binding seen in cells or lysates may run through a third protein. Some binding calls cover weakened binding; strength is not graded here.
# Tests used:
# [1] = molecular target: NPM oligomerization domain core NPM(9-122) (UniProt P06748); test: crystal structure
# [2] = molecular target: NPM oligomerization domain core NPM(9-122) (UniProt P06748); test: negative-stain electron microscopy with 3D reconstruction
# [3] = molecular target: NPM oligomerization domain NPM(1-130), His-tagged (UniProt P06748); test: NMR titration
# [4] = molecular target: NPM oligomerization domain NPM(1-130), His-tagged (UniProt P06748); test: native gel or EMSA
# [5] = molecular target: NPM oligomerization domain core NPM(9-122) (UniProt P06748); test: SPR
# [6] = molecular target: full-length nucleophosmin NPM(1-294), recombinant (UniProt P06748); test: SPR
# [7] = molecular target: endogenous cytochrome c of HeLa cells (human (endogenous in HeLa)) (UniProt P99999); test: co-IP
# [8] = molecular target: full length NPM ahead of the N-end fragment of YFP (UniProt P06748); test: split reporter
# [9] = molecular target: cytochrome c (Cc), recombinant, purified (UniProt P99999); test: NMR titration
substance,measurement,setting,value
"cytochrome c (Cc), recombinant, purified (from UniProt P99999 2-105)",binding,[1],binds
same,binding,[2],binds
same,binding,[3],binds
same,binding,[4],binds
same,binding,[5],binds
same,binding,[6],binds
endogenous nucleophosmin of HeLa cells (from UniProt P06748 1-294),binding,[7],binds
Cc fused to the C-end domain of the yellow fluorescent protein (from UniProt P99999 1-105),binding,[8],binds
"full-length nucleophosmin NPM(1-294), recombinant (from UniProt P06748 1-294)",binding,[9],binds
NPM oligomerization domain core NPM(9-122) (from UniProt P06748 9-122) (domain or fragment),binding,[9],binds
